From PMC5386549 come the findings set out here.

The target in assay [1] is Ras homolog gene family member A (RhoA), mouse, endogenous in ZW13-2 or Zpl3-4 cells (mouse (endogenous in ZW13-2 and Zpl3-4 cells)) (UniProt Q9QUI0). Briefly: co-IP.
Assay [2] has the same target. Kind of assay: co-IP; […]) antibody 2 h at 4 °C, […].
For assay [3] the target is unchanged. Briefly: pull-down; only the binder purified.
Assay [4] deals with purified recombinant GST-RhoA (UniProt P61586). Kind of assay: pull-down; […] (10 μg/ml in 500 μl) […]; 50 mM Tris-HCl pH 7.5, 1x PBS, 10% glycerol; […]; both purified.

No constants are given. Whether binding was seen depends on the method and setting. For some of these results: Binding seen in cells or lysates may run through a third protein. Some binding calls cover weakened binding; strength is not graded here.

As to “cellular prion protein (PrP^C), mouse, endogenous in ZW13-2 cells (from UniProt P04925 23-230)”, the binding entry in assay [1] and in assay [2] was “binds” throughout.

In the case of “purified human recombinant PrP (Hu-PrP) (from UniProt P04156 23-230)”, the binding result in assay [3] and in assay [4] was “binds” throughout.
